Our source for the T/C and survivor count values is PubChem BioAssay AID256 (DTP/NCI, 2004).

The test system of the assay is CD2F1 mice, L1210 leukemia ip, survival T/C. As to the kind of experiment: NCI In Vivo Anticancer Drug Screen. Data for tumor model L1210 Leukemia (intraperitoneal) in CD2F1 (CDF1) mice. The note with it: higher T/C = longer survival. The gist of the method:
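Each value reflects a quotient of treated over vehicle control outcomes in mice with a transplanted tumor.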

Where [1] appears, read: T/C endpoint: mean survival time, dose: 200.0 mg/kg/injection, schedule: Q04DX003 (ip), vehicle: saline with Tween-80.
Setting [2] is: T/C endpoint: median survival time, dose: 400.0 mg/kg/injection, schedule: Q01DX005 (ip), vehicle: distilled water + Tween-80.
Setting [3] is: T/C endpoint: median survival time, dose: 400.0 mg/kg/injection, schedule: Q01DX009 (ip), vehicle: distilled water + Tween-80.
[4] abbreviates: T/C endpoint: mean survival time, dose: 400.0 mg/kg/injection, schedule: Q01DX009 (ip), vehicle: saline with Tween-80.

The structures appear in SMILES notation. The list shows only some results of the screen, not a fair sample: it is rich in T/C values a quarter to a half above the control, in often repeated tests (any T/C) and in doses without a T/C. Other doses and runs of a compound stand elsewhere. T/C is the treated group as % of the vehicle group. Some doses have a count of surviving animals in place of a T/C: the source files T/C as zero there, which appears to mark a toxic dose or a test without result, not a measured value. Some survivor counts are full or nearly so, which does not show that the dose was tolerated: the source hardly ever lists a survival T/C far under the control, and the zero likely stands for such cases as well. Survivors were counted at the toxicity check, usually on the fifth day, unless a day is given; later deaths do not show. Schedules are NCI's codes, read here as Q, the interval in days (D) or hours (H), X, the number of doses. Some entries were tested several times; the results are listed from low to high. Some structures stand for samples that the source files as different forms (salt, stereo form or complex); doses refer to the form tested. Signs of the kind (2×) stand for listed records that agree. Where survival is the endpoint, the PubChem record calls one and a half times the control and up active, and a quarter to a half above the control has no call in these data; cut-offs in other NCI protocols can differ. Some T/C values carry the count of animals alive at the toxicity check (mostly the fifth day); where none is given, no animal had died by that day.

Regarding `Nc1cc(Cl)c2[nH]cnc2n1`, the T/C by setting is: (T/C endpoint: mean survival time, dose: 12.5 mg/kg/injection, schedule: Q01DX009 (ip), vehicle: distilled water + Tween-80) 125 % of control; (T/C endpoint: mean survival time, dose: 25.0 mg/kg/injection, schedule: Q01DX009 (ip), vehicle: distilled water + Tween-80) 138 % of control; (T/C endpoint: mean survival time, dose: 25.0 mg/kg/injection, schedule: Q01DX009 (ip), vehicle: water) 125 % of control; (T/C endpoint: mean survival time, dose: 50.0 mg/kg/injection, schedule: Q01DX009 (ip), vehicle: water) 134 % of control; (T/C endpoint: mean survival time, dose: 100.0 mg/kg/injection, schedule: Q01DX009 (ip), vehicle: water) 134 % of control; (T/C endpoint: mean survival time, dose: 133.0 mg/kg/injection, schedule: Q04DX003 (ip), vehicle: saline with Tween-80) 128 % of control. The T/C reads like this: (T/C endpoint: mean survival time, dose: 200.0 mg/kg/injection, schedule: Q01DX009 (ip), vehicle: water) 134 % of control [9 of 10 alive]; (T/C endpoint: mean survival time, dose: 200.0 mg/kg/injection, schedule: Q04DX003 (ip), vehicle: Klucel (hydroxypropylcellulose) (HPC)) 131 % of control; under setting [1], 140 % of control; (T/C endpoint: mean survival time, dose: 300.0 mg/kg/injection, schedule: Q04DX003 (ip), vehicle: saline with Tween-80) 126 % of control [4 of 6 alive]; (T/C endpoint: median survival time, dose: 25.0 mg/kg/injection, schedule: Q01DX005 (ip), vehicle: distilled water + Tween-80) 106, 108, 113, 120, 121, 125, 126, 127, 130, 138 % of control; (T/C endpoint: median survival time, dose: 25.0 mg/kg/injection, schedule: Q01DX009 (ip), vehicle: distilled water + Tween-80) 108, 117, 117 [5 of 6 alive], 118 (2×), 124, 130, 137, 140, 146, 160 % of control. Moreover, the T/C is 120, 125, 128, 136, 143, 144, 146, 147, 148, 151 % of control (T/C endpoint: median survival time, dose: 50.0 mg/kg/injection, schedule: Q01DX005 (ip), vehicle: distilled water + Tween-80); 135 % of control (T/C endpoint: median survival time, dose: 50.0 mg/kg/injection, schedule: Q01DX005 (ip), vehicle: saline with Tween-80); 130, 137, 139, 140, 144, 146, 148, 148 [5 of 6 alive], 150, 151 [5 of 6 alive], 154, 162 % of control (T/C endpoint: median survival time, dose: 50.0 mg/kg/injection, schedule: Q01DX009 (ip), vehicle: distilled water + Tween-80); 136, 138, 139, 144, 150, 151, 156, 158, 168 % of control (2×) (T/C endpoint: median survival time, dose: 100.0 mg/kg/injection, schedule: Q01DX005 (ip), vehicle: distilled water + Tween-80); 144, 146, 147 [5 of 6 alive], 151, 159, 160 (3×), 162, 168, 171, 181 % of control (T/C endpoint: median survival time, dose: 100.0 mg/kg/injection, schedule: Q01DX009 (ip), vehicle: distilled water + Tween-80); 137, 145 [5 of 6 alive], 146, 150, 151, 159 [5 of 6 alive] (2×), 166, 171 [5 of 6 alive], 181 % of control (T/C endpoint: median survival time, dose: 200.0 mg/kg/injection, schedule: Q01DX005 (ip), vehicle: distilled water + Tween-80). The T/C was 105, 139 [5 of 6 alive], 144, 151 [5 of 6 alive], 157, 158, 158 [5 of 6 alive], 160, 168 [4 of 6 alive], 170, 180, 193 % of control [5 of 6 alive] (T/C endpoint: median survival time, dose: 200.0 mg/kg/injection, schedule: Q01DX009 (ip), vehicle: distilled water + Tween-80); 143 [4 of 6 alive] and 197 % of control [5 of 6 alive] under setting [2]; 89 [4 of 6 alive], 97 [4 of 6 alive], 108 [5 of 6 alive], 111 [4 of 6 alive], 119 % of control [5 of 6 alive] under setting [3]. Also, the survivor count runs as follows: (T/C endpoint: median survival time, dose: 200.0 mg/kg/injection, schedule: Q01DX009 (ip), vehicle: saline with Tween-80) 4 of 6; under setting [2], 0 of 6, 1 of 6, 2 of 6, 3 of 6; (T/C endpoint: median survival time, dose: 400.0 mg/kg/injection, schedule: Q01DX005 (ip), vehicle: saline with Tween-80) 0 of 6; under setting [3], 0 of 6, 1 of 6, 2 of 6, 3 of 6, 4 of 6; (T/C endpoint: median survival time, dose: 400.0 mg/kg/injection, schedule: Q01DX009 (ip), vehicle: saline with Tween-80) 0 of 6.
As for `COc1ccc([I+]c2ccccc2)cc1`, the survivor count is 1 of 6 (T/C endpoint: mean survival time, dose: 12.5 mg/kg/injection, schedule: Q01DX009 (ip), vehicle: saline with Tween-80); 1 of 6 (T/C endpoint: mean survival time, dose: 25.0 mg/kg/injection, schedule: Q01DX009 (ip), vehicle: saline with Tween-80); 4 of 6 (T/C endpoint: mean survival time, dose: 50.0 mg/kg/injection, schedule: Q01DX009 (ip), vehicle: saline with Tween-80); 0 of 6 (T/C endpoint: mean survival time, dose: 100.0 mg/kg/injection, schedule: Q01DX009 (ip), vehicle: saline with Tween-80); 0 of 6 (T/C endpoint: mean survival time, dose: 200.0 mg/kg/injection, schedule: Q01DX009 (ip), vehicle: saline with Tween-80); 0 of 6 under setting [4].
Regarding `CCOP(=S)(OCC)OP(=S)(OCC)OCC`, the survivor count (T/C endpoint: mean survival time, dose: 8.0 mg/kg/injection, schedule: Q04DX003 (ip), vehicle: other) is 5 of 6 and the survivor count (T/C endpoint: mean survival time, dose: 16.0 mg/kg/injection, schedule: Q04DX003 (ip), vehicle: other) is reported as 0 of 6.
As for `Cc1cc(Br)ccc1[NH-].Cc1cc(Br)ccc1[NH-].[Cl][Pt+2][Cl]`, the survivor count (T/C endpoint: mean survival time, dose: 140.0 mg/kg/injection, schedule: Q04DX003 (ip), vehicle: saline with Tween-80) is listed as 3 of 3.
`O=[N+]([O-])c1cc[n+]([O-])cc1`: the survivor count was 1 of 6 (T/C endpoint: mean survival time, dose: 150.0 mg/kg/injection, schedule: Q01DX001 (ip), vehicle: saline) and 0 of 6 (T/C endpoint: mean survival time, dose: 300.0 mg/kg/injection, schedule: Q01DX001 (ip), vehicle: saline).
Turning to `Cn1c(=O)[nH]c2c(nc(-c3ccccc3)n2C)c1=O`, under “T/C endpoint: mean survival time, dose: 200.0 mg/kg/injection, schedule: Q01DX005 (ip), vehicle: other”, the survivor count was 3 of 5.
In the case of `NC(=S)Nc1ccccc1[N+](=O)[O-]`, the survivor count was 0 of 6 (T/C endpoint: mean survival time, dose: 400.0 mg/kg/injection, schedule: Q01DX001 (ip), vehicle: saline with Tween-80) and 2 of 6 (T/C endpoint: mean survival time, dose: 400.0 mg/kg/injection, schedule: Q04DX002 (ip), vehicle: saline with Tween-80).
`COc1cc([C@@H]2c3cc4c(cc3[C@H](OC(C)=O)[C@H]3COC(=O)[C@@H]23)OCO4)cc(OC)c1OC`: the T/C (T/C endpoint: mean survival time, dose: 50.0 mg/kg/injection, schedule: Q01DX009 (ip), vehicle: saline sonified) was 127 % of control. The survivor count (T/C endpoint: mean survival time, dose: 200.0 mg/kg/injection, schedule: Q01DX009 (ip), vehicle: saline sonified) is given as 5 of 6.
For the molecule `CCCCOC1CC2c3ccccc3C1c1cccc[n+]12` (stereo not given), the survivor count (T/C endpoint: mean survival time, dose: 100.0 mg/kg/injection, schedule: Q04DX003 (ip), vehicle: saline) was 0 of 6 and 5 of 6; the survivor count (T/C endpoint: mean survival time, dose: 200.0 mg/kg/injection, schedule: Q04DX003 (ip), vehicle: saline) is 0 of 6 (2×); the survivor count (T/C endpoint: mean survival time, dose: 400.0 mg/kg/injection, schedule: Q04DX003 (ip), vehicle: saline) was 0 of 6 (2×).
Take `CC(=O)OCCN1CC1`: the survivor count is, setting by setting: (T/C endpoint: mean survival time, dose: 50.0 mg/kg/injection, schedule: Q01DX009 (ip), vehicle: saline) 0 of 6; (T/C endpoint: mean survival time, dose: 100.0 mg/kg/injection, schedule: Q01DX009 (ip), vehicle: saline) 0 of 6.
As for `Nc1ncnc2c1c(CO)cn2C1OC(CO)C(O)C1O` (stereo not given), the survivor count is, setting by setting: (T/C endpoint: mean survival time, dose: 200.0 mg/kg/injection, schedule: Q01DX005 (ip), vehicle: distilled water + Tween-80) 0 of 3; (T/C endpoint: mean survival time, dose: 400.0 mg/kg/injection, schedule: Q01DX005 (ip), vehicle: distilled water + Tween-80) 0 of 3.
As for `c1ccc(SSc2ccccc2)cc1`, the survivor count runs as follows: under setting [1], 3 of 6; (T/C endpoint: mean survival time, dose: 400.0 mg/kg/injection, schedule: Q04DX003 (ip), vehicle: saline with Tween-80) 0 of 6.
As to `O=C(C[n+]1ccc2ccccc2c1)c1ccc2ccccc2c1`, for the setting “T/C endpoint: mean survival time, dose: 50.0 mg/kg/injection, schedule: Q04DX003 (ip), vehicle: saline with Tween-80”, the survivor count was 6 of 6.
Regarding `CSc1nc(NN)c2cnn(C3OC(CO)C(O)C3O)c2n1` (stereo not given), the survivor count (T/C endpoint: median survival time, dose: 180.0 mg/kg/injection, schedule: Q01DX005 (ip), vehicle: saline with Tween-80) is 0 of 5.
Take `O=C(O)c1cc(Br)c(-c2c(Br)cc(C(=O)O)cc2[N+](=O)[O-])c([N+](=O)[O-])c1`: the survivor count under setting [4] was 3 of 6.
With `C=CC(C)(C)S(=O)[O-].C[c-]1[c-][c-][c-][c-]1.[C-]#[O+].[C-]#[O+].[Fe+6]`, the survivor count (T/C endpoint: mean survival time, dose: 200.0 mg/kg/injection, schedule: Q04DX002 (ip), vehicle: saline) is reported as 0 of 3.
